Laboratory results as given in patent US8450280B2, “Activation of peptide prodrugs by hK2” (GenbSpera, Inc., priority 1999, dated 2013).
At least one compound was matched to its structure with a doubt left. Starred links: 1 amine or outer side, 2 acyl side, 3 side chain; linkers in the order of their positions; H or OH if unused. Residues, ends and D or L forms follow the SMILES beside them. CO = O=C([*:1])[*:2]

The chains behind the UniProt entries cited, without tags or fusion partners. Residues count along the entry.
UniProt P20151, 25-261: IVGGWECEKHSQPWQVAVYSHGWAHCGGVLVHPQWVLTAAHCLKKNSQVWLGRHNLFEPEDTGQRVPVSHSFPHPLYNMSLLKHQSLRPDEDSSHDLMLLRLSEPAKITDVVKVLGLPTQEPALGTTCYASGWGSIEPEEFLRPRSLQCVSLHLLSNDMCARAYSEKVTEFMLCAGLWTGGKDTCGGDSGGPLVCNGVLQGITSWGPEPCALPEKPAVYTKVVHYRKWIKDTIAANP

Target: T1, hK2 (Homo sapiens, UniProt P20151)
T1 construct: made in house
Assay: Inhibition of hK2 by protease inhibitors (substrate H-Pro-Phe-Arg-AMC)
Type: biochemical
Conditions: 8 nM hK2, 90 μM substrate
Experimental: Activity of hK2 (1.6 pmol) was monitored using the substrate H-Pro-Phe-Arg-AMC (SEQ ID NO: 55) (90 μM). Inhibitors, at commonly used concentrations, and hK2 (8.3 nM) were mixed and proteolysis of 90 μM H-Pro-Phe-Arg-AMC (SEQ ID NO: 55) was followed up to 20 minutes, starting directly or 10 minutes after mixing the enzyme with various inhibitors. Inhibition was evaluated by comparison with […] controls.
The proteolytic activity is expressed in percentage of inhibitor-free control after 10 minutes of incubation.
Therefore, PPACK can be used to obtain fast irreversible inhibition of hK2.

In the case of `CC(C)[C@H](NC(=O)[C@H](CCCNC(=N)N)NC(=O)N[C@@H](Cc1ccccc1)C(=O)O)C(=O)N[C@H](C=O)CCCNC(=N)N` [Antipain, antipain] ({Phe-CO}-Arg-Val-Arg-aldehyde), the “inhibition of hK2 (in words)” value is reported as “only weakly inhibited”.
